From article PMC6203401

By UniProt entry, the sequences of proteins in these tests, tags left out.
UniProt Q9SEX2: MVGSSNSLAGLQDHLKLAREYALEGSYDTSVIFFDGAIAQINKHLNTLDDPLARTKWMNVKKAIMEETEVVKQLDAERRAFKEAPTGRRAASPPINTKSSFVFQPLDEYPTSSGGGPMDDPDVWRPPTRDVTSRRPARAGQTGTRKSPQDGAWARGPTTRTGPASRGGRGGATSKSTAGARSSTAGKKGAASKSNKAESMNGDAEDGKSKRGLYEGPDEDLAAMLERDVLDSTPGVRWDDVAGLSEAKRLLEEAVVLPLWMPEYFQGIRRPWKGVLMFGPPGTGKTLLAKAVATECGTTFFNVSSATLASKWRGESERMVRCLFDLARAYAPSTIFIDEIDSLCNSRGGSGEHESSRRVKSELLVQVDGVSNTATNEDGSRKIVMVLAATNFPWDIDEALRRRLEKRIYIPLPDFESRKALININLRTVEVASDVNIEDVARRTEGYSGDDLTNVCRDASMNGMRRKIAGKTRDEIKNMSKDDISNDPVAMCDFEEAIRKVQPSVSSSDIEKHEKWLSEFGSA

Molecular target: T1, GFP-AN (ANGUSTIFOLIA fused with GFP, 35S promoter), stable transgenic A. thaliana line (A. thaliana) (UniProt O23702)
T1 sequence: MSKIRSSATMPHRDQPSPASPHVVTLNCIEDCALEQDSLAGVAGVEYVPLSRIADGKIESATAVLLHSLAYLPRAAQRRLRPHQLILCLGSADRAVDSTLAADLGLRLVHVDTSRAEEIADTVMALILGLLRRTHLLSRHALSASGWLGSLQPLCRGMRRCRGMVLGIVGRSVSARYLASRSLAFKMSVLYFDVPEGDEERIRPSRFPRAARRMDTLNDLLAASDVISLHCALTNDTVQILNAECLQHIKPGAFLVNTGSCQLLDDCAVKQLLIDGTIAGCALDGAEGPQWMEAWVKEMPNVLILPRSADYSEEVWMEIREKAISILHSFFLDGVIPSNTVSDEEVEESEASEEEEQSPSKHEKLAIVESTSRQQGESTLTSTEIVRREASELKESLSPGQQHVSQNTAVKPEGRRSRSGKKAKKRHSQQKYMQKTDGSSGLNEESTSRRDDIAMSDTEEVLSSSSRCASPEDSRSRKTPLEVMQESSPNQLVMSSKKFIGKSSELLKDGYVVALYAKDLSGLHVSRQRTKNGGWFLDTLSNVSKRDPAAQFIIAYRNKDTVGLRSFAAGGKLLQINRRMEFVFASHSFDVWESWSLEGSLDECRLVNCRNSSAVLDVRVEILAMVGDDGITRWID
Assay: affinity purification with mass spectrometry; GFP-Trap agarose beads on total protein extract of the 35S::GFP-AN line (rdr6-11 background), 4 °C, 4 h; 25 mM Hepes-KOH pH 7.4, 10 mM MgCl2, 100 mM NaCl, 5 mM NaF, 15% glycerol, 1% Triton X-100; control 35S::GFP line; biological triplicate; LC-MS/MS

- binding: no binding
Substance: KTN1 (katanin p60), endogenous (from UniProt Q9SEX2 1-523) (enzyme)

Results are given in words; binding and its absence hold for the method and conditions named. In cells and extracts the contact can be indirect. A yes stands for co-enrichment or nearness to the bait. Other partners may have been found. No binding means not detected with the bait. Tags and fused reporters may be left off the sequences shown.
